Library screen at single concentrations

The values are deposited in ChEMBL (CHEMBL3988442, “University of Dundee, Small-Polar-MMV Screening Library” (2021)).

Mtb glucose medium: 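Phenotypic screen: M. tuberculosis growth, glucose 7H9 medium, 3 days; the read-out is not stated. Compounds at 50 µM. Higher reads as more growth inhibition (inferred: compounds with an IC50 in retests scored well above the rest). Size under these conditions: about 69,000 compounds, about 760 of them at 50% or above in at least one test.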
Mtb cholesterol medium: 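Phenotypic screen: M. tuberculosis growth, cholesterol and DPPC medium, 4 days; the read-out is not stated. Tested at 50 µM. Higher reads as more growth inhibition (inferred: compounds with an IC50 in retests scored well above the rest). Of about 69,000 compounds tested this way, about 370 (0.54%) reached 50% or more in at least one test.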

Values are the deposited “Percent Effect”, in %.
The record does not define 0% and 100%; most values in the screen are far below 50% and negative numbers occur (in some assays of this library far below -100).
Compounds were drawn at random from those tested, without regard to their results.
Two or more numbers in one place are separate tests of the same structure; such repeats can differ widely.

{"compound": "CC(C)CN1CC(c2nc(-c3ccc(F)cc3)c[nH]2)CC1=O", "stereo": "stereo unspecified", "Mtb glucose medium": 9.631, "Mtb cholesterol medium": 6.062}
{"compound": "CN(C)c1ncc(CNS(=O)(=O)c2cccc3ccccc23)n1C", "Mtb glucose medium": "-5.696 and -44.48", "Mtb cholesterol medium": -8.43}
{"compound": "CN(C)S(=O)(=O)CCCOc1cccc(-n2ccnc2)c1", "Mtb glucose medium": "4.023 and 13.96", "Mtb cholesterol medium": 2.524}
{"compound": "Cc1nc(CCN2CCC(Oc3ccccc3F)CC2)cs1", "Mtb glucose medium": 5.116, "Mtb cholesterol medium": -22.1}
{"compound": "O=C(O)C1(Cc2cc(-c3ccc(F)cc3)no2)CCOCC1", "Mtb glucose medium": -1.394, "Mtb cholesterol medium": -20.84}
{"compound": "CN(Cc1cccc(OC(F)F)c1)Cc1nc2c(cnn2C)c(=O)[nH]1", "Mtb glucose medium": -15.33, "Mtb cholesterol medium": -20.86}
{"compound": "CN(Cc1nccn1C)c1nccc(N2CCCC(O)C2)n1", "stereo": "stereo unspecified", "Mtb glucose medium": "-3.212 and -10.74", "Mtb cholesterol medium": -12.32}
{"compound": "CC(C)c1nccn1C(C)C(=O)N1CCN(c2cnccn2)CC1", "stereo": "stereo unspecified", "Mtb glucose medium": "111.3 and -7.649", "Mtb cholesterol medium": 8.633}
{"compound": "CCn1nc(C)c(NC(=O)c2cc(NC(=O)C3CC3)n(C)n2)c1C", "Mtb glucose medium": -3.45, "Mtb cholesterol medium": -10.43}
{"compound": "CN(C)CCN1CCOCC2(CCCN(C(=O)c3cccn3C)C2)C1.O=C(O)C(F)(F)F.O=C(O)C(F)(F)F", "stereo": "stereo unspecified", "Mtb glucose medium": "0.196 and -5.01", "Mtb cholesterol medium": -2.351}
{"compound": "Cc1cc(C)n(C2CCCN(C(=O)CCCNc3ncccn3)C2)n1", "stereo": "stereo unspecified", "Mtb glucose medium": -28.34, "Mtb cholesterol medium": -8.19}
{"compound": "COCCCN1CCN(CCOC)C(C)C1", "stereo": "stereo unspecified", "Mtb glucose medium": "-4.612 and -2.682", "Mtb cholesterol medium": 10.25}
{"compound": "COc1cc(C)c(CN2CCc3nc4ccsc4c(=O)n3CC2)cc1C", "Mtb glucose medium": 0.8756, "Mtb cholesterol medium": -17.03}
{"compound": "O=C(NCCc1csc(-c2cnccn2)n1)c1cnn[nH]1", "Mtb glucose medium": -30.41, "Mtb cholesterol medium": 1.89}
{"compound": "O=C(O)C(F)(F)F.[H][C@@]12CCN(Cc3ccc(C)o3)C[C@@]1([H])[C@H](C(=O)N1CCCCO1)CCO2", "Mtb glucose medium": -0.3489, "Mtb cholesterol medium": -13.04}
{"compound": "CCc1cnc(CN(C(C)=O)C2CCN(CC3(O)CCCCC3)C2)o1", "stereo": "stereo unspecified", "Mtb glucose medium": -6.941, "Mtb cholesterol medium": -8.997}
{"compound": "CCc1cnc(C)nc1N1CCC(Cc2cccc(C(=O)O)c2)C1", "stereo": "stereo unspecified", "Mtb glucose medium": -12.81, "Mtb cholesterol medium": -7.219}
{"compound": "O=C(c1ccsc1)N1C[C@@H](CN2CCCC2)[C@@H](CO)C1", "Mtb glucose medium": -16.39, "Mtb cholesterol medium": -12.13}
{"compound": "CCN(C(=O)COC)C(c1cccnc1)c1cc(C)cc(C)c1", "stereo": "stereo unspecified", "Mtb glucose medium": -64.91, "Mtb cholesterol medium": -35.7}
{"compound": "Cc1ccc(C(=O)Nc2cnn(CC(=O)NC3CCCC3)c2)c(=O)[nH]1", "Mtb glucose medium": -6.385, "Mtb cholesterol medium": "0.2053 and -7.824"}
{"compound": "COc1cccc(CN(C)S(=O)(=O)N2CCOCC2)c1", "Mtb glucose medium": "23 and -2.665", "Mtb cholesterol medium": -1.673}
{"compound": "CNc1cncc(C2CCCN2Cc2ccccn2)n1", "stereo": "stereo unspecified", "Mtb glucose medium": 21.65, "Mtb cholesterol medium": -7.607}
{"compound": "Cc1nn(C)c(C)c1C1CCCN1CCOc1ccccc1C#N", "stereo": "stereo unspecified", "Mtb glucose medium": 8.936, "Mtb cholesterol medium": -29.79}
{"compound": "NCC(=O)N1CCC(c2cncc(Oc3cccnc3)n2)CC1", "Mtb glucose medium": 13.52, "Mtb cholesterol medium": -2.117}
{"compound": "CC(C(=O)NCc1cn2cc(Br)ccc2n1)S(C)(=O)=O", "stereo": "stereo unspecified", "Mtb glucose medium": 10.67, "Mtb cholesterol medium": "-2.053 and -4.876"}
{"compound": "CCC(C)(NCC(=O)NC(C)C)c1nccs1", "stereo": "stereo unspecified", "Mtb glucose medium": 5.98, "Mtb cholesterol medium": "0.2254 and 0.414"}
{"compound": "Cc1ccc(N2CCCC(N(C)Cc3cc(C)no3)C2)nn1", "stereo": "stereo unspecified", "Mtb glucose medium": -4.427, "Mtb cholesterol medium": 5.257}
{"compound": "COCCn1ccnc1C1CCCN(c2ncnc3c(C)csc23)C1", "stereo": "stereo unspecified", "Mtb glucose medium": -7.474, "Mtb cholesterol medium": 15.41}
{"compound": "CN1CCOC(CN(C(=O)Cc2ccccc2F)c2nccs2)C1", "stereo": "stereo unspecified", "Mtb glucose medium": 15.12, "Mtb cholesterol medium": -11.14}
{"compound": "O=C(O)C(F)(F)F.[H][C@]12CCC[C@@H](CNc3nccn3C)[C@@]1([H])CN(Cc1cnn(C)c1)C2", "Mtb glucose medium": "2.688 and 1.609", "Mtb cholesterol medium": 12.93}
{"compound": "CCOc1ccc(CN2CC[C@](C)(O)C(C)(C)C2)cn1", "Mtb glucose medium": 13.12, "Mtb cholesterol medium": -0.3148}
{"compound": "CN(CCS(C)(=O)=O)C1CCCN(Cc2noc(C3CC3)n2)C1", "stereo": "stereo unspecified", "Mtb glucose medium": -9.13, "Mtb cholesterol medium": -2.381}
{"compound": "Cc1n[nH]c(C)c1Sc1ccccc1NC(=O)N1CCOCC1", "Mtb glucose medium": 11.82, "Mtb cholesterol medium": -3.94}
{"compound": "Oc1nc(N2CCOCC2)nc2c1CCN(Cc1ccc(F)cc1)CC2", "Mtb glucose medium": -4.571, "Mtb cholesterol medium": 18.48}
{"compound": "COc1ccc(S(=O)(=O)N2CCc3ccc(F)cc32)cc1C(=O)O", "Mtb glucose medium": 15.92, "Mtb cholesterol medium": 15.72}
{"compound": "CC(C)C1=NOC2(CCN(C(=O)C3CCCC3)CC2)C1", "Mtb glucose medium": 14.25, "Mtb cholesterol medium": -0.275}
{"compound": "CN(Cc1nnc2n1CCC2)C(=O)Cc1ccc2c(c1)OCCO2", "Mtb glucose medium": -17.68, "Mtb cholesterol medium": -8.93}
{"compound": "COc1ccc2cc(C(=O)N3CCCCC3Cn3cccn3)[nH]c2c1", "stereo": "stereo unspecified", "Mtb glucose medium": 0.7577, "Mtb cholesterol medium": 13.67}
{"compound": "Cc1cc(C(=O)Nc2ccc(N3CCCC3)cn2)ccc1-n1cncn1", "Mtb glucose medium": "5.814 and -11.87", "Mtb cholesterol medium": -11.62}
{"compound": "CN(C)c1cc(C(=O)NC2(c3cccc(F)c3)CCOCC2)ccn1", "Mtb glucose medium": "-4.94 and -0.6711", "Mtb cholesterol medium": -11.27}
{"compound": "CC(C)c1ncncc1C(=O)NCCN1CCCC1", "Mtb glucose medium": 14.06, "Mtb cholesterol medium": -9.96}
{"compound": "Cc1c(CN2CC[C@@H](N3CCC(O)CC3)[C@H](O)C2)[nH]c2ccc(F)cc12", "Mtb glucose medium": 22.41, "Mtb cholesterol medium": 1.259}
{"compound": "CCc1ccccc1OCCN(C)C(=O)CN1CCCC1", "Mtb glucose medium": "49.99 and 35.43", "Mtb cholesterol medium": 32.69}
{"compound": "CCCN1CCN(c2nc(N)nc3c2nc(C)n3C)CC1", "Mtb glucose medium": "-7.344 and -16.03", "Mtb cholesterol medium": -4.149}
{"compound": "CCOc1ccccc1C(CC(=O)N(C)C)NC(C)=O", "stereo": "stereo unspecified", "Mtb glucose medium": 30.66, "Mtb cholesterol medium": -1.386}
{"compound": "O=C(O)C(F)(F)F.O=C1NC2(CCN(CC3CC3)CC2)CC1c1ccccc1", "stereo": "stereo unspecified", "Mtb glucose medium": "15.05 and -7.617", "Mtb cholesterol medium": 3.499}
{"compound": "CCc1cc(CNC(=O)Nc2cc(F)ccc2N2CCCCC2)on1", "Mtb glucose medium": -0.8039, "Mtb cholesterol medium": 0.1388}

Some entries from above, unchanged:

CCn1nc(C)c(NC(=O)c2cc(NC(=O)C3CC3)n(C)n2)c1C gave Mtb glucose medium: -3.45%; Mtb cholesterol medium: -10.43%.
COc1cccc(CN(C)S(=O)(=O)N2CCOCC2)c1 gave Mtb glucose medium: 23% and -2.665%; Mtb cholesterol medium: -1.673%.
CN(Cc1cccc(OC(F)F)c1)Cc1nc2c(cnn2C)c(=O)[nH]1 gave Mtb glucose medium: -15.33%; Mtb cholesterol medium: -20.86%.
CCc1cc(CNC(=O)Nc2cc(F)ccc2N2CCCCC2)on1 gave Mtb glucose medium: -0.8039%; Mtb cholesterol medium: 0.1388%.
CCCN1CCN(c2nc(N)nc3c2nc(C)n3C)CC1 gave Mtb glucose medium: -7.344% and -16.03%; Mtb cholesterol medium: -4.149%.